Reference: PMC12313066
No constants are given. Whether binding was seen depends on the method and setting. Binding seen in cells or lysates may run through a third protein. Some entries that bind do so weakly or less than the wild type. For some of these results: Where a sequence is shown, tags or fusion partners need not be part of it.

Key:
[1] = molecular target: T1, Flag-WDR83 (WD repeat domain 83) (UniProt Q9BRX9); experiment: co-IP; HeLa S3 co-transfected with HA-Tax and Flag-WDR83 or Flag-GPATCH1, 48 hours; IP overnight with 5 ug Flag or IgG antibody, rProtein A/G beads, five washes with RIPA lysis buffer, Western blot
T1 sequence: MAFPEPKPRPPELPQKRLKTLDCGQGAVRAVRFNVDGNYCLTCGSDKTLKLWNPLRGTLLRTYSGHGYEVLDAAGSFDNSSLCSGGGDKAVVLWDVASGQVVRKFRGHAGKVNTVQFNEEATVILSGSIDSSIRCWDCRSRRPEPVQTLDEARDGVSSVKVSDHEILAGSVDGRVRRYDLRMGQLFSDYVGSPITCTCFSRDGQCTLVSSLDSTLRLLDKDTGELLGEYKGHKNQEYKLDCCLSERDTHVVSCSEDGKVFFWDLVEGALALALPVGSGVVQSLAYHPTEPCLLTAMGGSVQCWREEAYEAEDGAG

[2] = molecular target: T2, Flag-GPATCH1 (G-patch domain containing 1) (UniProt Q9BRR8); experiment: as above
T2 sequence: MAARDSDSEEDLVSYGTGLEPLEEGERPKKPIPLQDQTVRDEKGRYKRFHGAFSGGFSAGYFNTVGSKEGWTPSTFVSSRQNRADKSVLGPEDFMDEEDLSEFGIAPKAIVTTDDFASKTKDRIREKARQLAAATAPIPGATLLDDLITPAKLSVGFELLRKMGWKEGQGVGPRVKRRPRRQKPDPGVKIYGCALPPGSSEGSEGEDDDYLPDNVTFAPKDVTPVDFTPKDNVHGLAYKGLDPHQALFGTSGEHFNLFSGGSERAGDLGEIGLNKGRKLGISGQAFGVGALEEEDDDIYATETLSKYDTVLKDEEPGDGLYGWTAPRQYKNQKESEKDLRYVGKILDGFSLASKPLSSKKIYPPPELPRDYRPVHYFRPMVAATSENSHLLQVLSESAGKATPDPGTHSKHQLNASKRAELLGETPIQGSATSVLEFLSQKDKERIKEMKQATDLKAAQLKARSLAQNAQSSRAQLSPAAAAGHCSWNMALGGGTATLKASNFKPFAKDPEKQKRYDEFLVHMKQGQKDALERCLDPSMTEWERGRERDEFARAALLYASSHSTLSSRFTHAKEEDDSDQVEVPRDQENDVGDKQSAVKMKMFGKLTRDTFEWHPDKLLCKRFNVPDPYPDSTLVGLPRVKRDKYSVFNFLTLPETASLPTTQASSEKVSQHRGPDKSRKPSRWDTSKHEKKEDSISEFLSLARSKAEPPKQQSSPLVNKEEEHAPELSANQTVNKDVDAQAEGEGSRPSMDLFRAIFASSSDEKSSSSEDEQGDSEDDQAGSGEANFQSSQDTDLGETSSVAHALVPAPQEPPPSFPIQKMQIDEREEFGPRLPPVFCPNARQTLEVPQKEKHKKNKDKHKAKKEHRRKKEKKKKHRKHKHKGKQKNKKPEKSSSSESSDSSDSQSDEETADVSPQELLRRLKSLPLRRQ

[3] = molecular target: T3, WD repeat domain 83 (WDR83), endogenous (human (endogenous in HeLa S3, ATL-2 and ATL-T)) (UniProt Q9BRX9); experiment: co-IP; endogenous proteins in ATL-2 and ATL-T cells (1 x 10^6 cells); rProtein A/G beads, five washes with RIPA lysis buffer, Western blot; the precipitating antibody is not named for this experiment
T3 sequence: T1 sequence

[4] = molecular target: T4, G-patch domain containing 1 (GPATCH1), endogenous (human (endogenous in HeLa S3, ATL-2 and ATL-T)) (UniProt Q9BRR8); experiment: as above
T4 sequence: T2 sequence

In the case of HA-Tax (from UniProt P03409 1-353), the binding [1] is reported as “binds” and the binding [2] is reported as “binds”.
For “Tax (endogenous, HTLV-1 infected cells) (from UniProt P03409 1-353)”, the binding [3] was “binds” and the binding [4] was “binds”.
